Results deposited as PubChem BioAssay AID1259308 (NCATS, 2017).
The whole screen tested about 59,000 reagents; this is a random part of them. About 1,510 of them (2.6%) count as active. 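Calls use total luciferase alone and ignore viability, so some active siRNAs may act by altering cell number.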 Reagents against one gene are numbered here.

Assay: 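Genes whose loss raises luciferase production in HEK293 cells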 (primary screen)
Cell system: human HEK293 embryonic kidney cells stably expressing firefly luciferase (HEK-CMV-Luc2-Hygro)
Knock-down reagent: single siRNA against human genes, 0.8 pmol siRNA per well
Timing: 72 h
Measurement: 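Luciferase light (ONE-Glo) measured on one replicate plate set and viability (CellTiter-Glo) on the other, scaled to a negative control siRNA, with robust z-scores and luciferase per cell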
Scale: total luciferase, z-score and total luciferase, % of control: higher = more reporter protein produced; luciferase per cell, z-score: higher = more reporter output per viable cell; viable cells, % of control: higher = more viable cells
Rule for the call: 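Active when the median/MAD z-score for overall luciferase is greater than 3; a gene was taken forward for validation with new siRNAs if at least two of its three siRNAs passed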
Meaning of the calls: active = raised luciferase; inactive = no rise

no.	gene knocked down	reagent no.	total luciferase, z-score	total luciferase, % of control	luciferase per cell, z-score	viable cells, % of control	Outcome
1	PRR13	1	3.4	149	3.32	69.6	active
2	PRR13	2	-1.49	52.3	-1.78	93.5	inactive
3	PRR13	3	-0.196	78	0.518	76	inactive
4	ZNF485	1	1.93	120	1.67	86.5	inactive
5	ZNF485	2	-0.422	73.5	-0.777	101	inactive
6	ZNF485	3	0.976	101	0.476	99.9	inactive
7	ARL13A	1	1.21	106	1.7	75.6	inactive
8	ARL13A	2	0.368	89.2	0.701	82.9	inactive
9	ARL13A	3	1.28	107	0.825	96.4	inactive
10	BTLA	1	0.514	92.1	0.517	89.8	inactive
11	BTLA	2	1.43	110	1.51	82.9	inactive
12	BTLA	3	0.182	85.5	0.0814	93.5	inactive
13	ARPC1A	1	0.673	95.3	0.157	102	inactive
14	ARPC1A	2	0.0594	83.1	-0.153	96.6	inactive
15	ARPC1A	3	-2.29	36.4	-1.87	66.5	inactive
16	RER1	1	0.454	90.9	-0.0675	103	inactive
17	RER1	2	1.82	118	1.18	96.9	inactive
18	RER1	3	-0.0974	79.9	-0.627	105	inactive
19	IL33	1	-0.909	63.8	-1.23	98.5	inactive
20	IL33	2	-0.824	65.5	-1.19	100	inactive
21	IL33	3	-0.181	78.3	-0.257	93.6	inactive
22	NR1H2	1	0.186	85.6	0.418	85.7	inactive
23	NR1H2	2	0.272	87.3	-0.311	106	inactive
24	NR1H2	3	0.25	86.9	-0.527	112	inactive
25	SPTLC3	1	-0.793	66.1	-1.6	113	inactive
26	SPTLC3	2	-1.29	56.2	0.401	56.5	inactive
27	SPTLC3	3	-0.041	81.1	0.249	84.8	inactive
28	NAIPP3	1	0.392	89.7	0.176	95.7	inactive
29	NAIPP3	2	-0.16	78.7	1.19	64.4	inactive
30	NAIPP3	3	0.2	85.9	-0.0338	96.8	inactive
31	SLC22A25	1	-0.65	69	-0.294	83.3	inactive
32	SLC22A25	2	-1.08	60.4	-0.877	85	inactive
33	SLC22A25	3	1.29	108	0.578	103	inactive
34	LINC00598	1	-1.02	61.7	-0.894	87.2	inactive
35	LINC00598	2	-0.00211	81.8	-0.689	110	inactive
36	LINC00598	3	-0.502	71.9	-0.22	85.1	inactive
37	CIMIP1	1	-0.306	75.8	-0.823	105	inactive
38	CIMIP1	2	-0.139	79.1	-0.31	95.9	inactive
39	CIMIP1	3	1.83	118	0.928	103	inactive
40	ALDH1L1	1	0.176	85.4	0.923	74.8	inactive
41	ALDH1L1	2	-1.06	60.8	-1.52	101	inactive
42	ALDH1L1	3	-0.873	64.5	-0.937	92.3	inactive
43	ABHD17C	1	0.928	100	0.671	94	inactive
44	ABHD17C	2	-0.0343	81.2	-0.393	101	inactive
45	ABHD17C	3	-0.842	65.1	0.0792	71.3	inactive
46	ZNF467	1	0.604	93.9	1.12	78.1	inactive
47	ZNF467	2	-1.23	57.4	-1.63	98.6	inactive
48	ZNF467	3	2.36	129	2.08	83.4	inactive
49	TIMP3	1	-2.28	36.6	-2.77	84.8	inactive
50	TIMP3	2	-0.187	78.2	0.281	81.1	inactive
51	TIMP3	3	-1.06	60.8	-0.978	87.8	inactive
52	GUCY2F	1	-0.532	71.3	-1.02	104	inactive
53	GUCY2F	2	-2.01	42	-1.43	68.4	inactive
54	GUCY2F	3	-0.0453	81	-0.315	98.3	inactive
55	TFAP2A	1	-1.6	50.1	-1.58	85.1	inactive
56	TFAP2A	2	0.648	94.8	1.12	78.8	inactive
57	TFAP2A	3	0.289	87.6	0.549	84.7	inactive
58	TMT1A	1	-0.202	77.9	-0.39	96.4	inactive
59	TMT1A	2	-0.351	74.9	0.292	77.5	inactive
60	TMT1A	3	-0.476	72.4	-0.261	86.7	inactive
61	CEP19	1	-0.216	77.6	0.119	84	inactive
62	CEP19	2	-1.44	53.3	-0.571	69.2	inactive
63	CEP19	3	-0.249	76.9	-0.729	104	inactive
64	TECPR2	1	0.666	95.1	0.301	98.2	inactive
65	TECPR2	2	-2.21	38	-2.47	81.2	inactive
66	TECPR2	3	0.14	84.7	0.299	87.4	inactive
67	OOEP	1	0.164	85.1	-0.684	114	inactive
68	OOEP	2	1.69	115	1.29	92	inactive
69	OOEP	3	0.792	97.6	-0.121	113	inactive
70	MAGEC3	1	-0.821	65.5	-0.749	89.2	inactive
71	MAGEC3	2	-0.36	74.7	-0.398	92.7	inactive
72	MAGEC3	3	-0.0214	81.5	-0.538	105	inactive
73	TRPV1	1	0.695	95.7	-0.392	119	inactive
74	TRPV1	2	-0.395	74	-0.615	97.3	inactive
75	TRPV1	3	0.366	89.2	0.077	97.6	inactive
